Laboratory results reported in US20180028478A1, “ANTIVIRAL COMPOSITIONS DIRECTED AGAINST THE NUCLEOPROTEIN OF INFLUENZA VIRUSES” (priority 2011, published 2018).
Some of these results come from one statement about several compounds together.

Tested on: Influenza A/WSN/33 virus
Type: cell-based, Influenza A/WSN/33 (H1N1)

Compound | antiviral efficiency relative to Naproxen [times]
O=C(O)c1ccc(C=Nn2c(S)nnc2-c2ccc(Cl)cc2Cl)cc1 [compound 59] | 2 to 4
Cc1ccc(-c2nnc(S)n2/N=C/c2ccc(C(=O)O)cc2)cc1 [compound 72] | 2 to 4
